The record followed here is publication PMC4395342.

By UniProt entry, the sequences of proteins in these tests, tags left out. Residues count along the entry.
UniProt Q9NTX7, residues 92-168: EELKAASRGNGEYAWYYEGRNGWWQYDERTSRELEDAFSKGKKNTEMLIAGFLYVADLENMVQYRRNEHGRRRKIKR

No constants are given. Whether binding was seen depends on the method and setting. In cells and extracts the contact can be indirect. Some results given as binding are weak or reduced against the parent protein; the word gives no strength.

The experiment concerns the target GST fused to the WWE domain of the E3 ubiquitin ligase RNF146 (UniProt Q9NTX7). Nature of the experiment: pull-down; GST-WWE resins (15-20 μg) incubated 6-14 hr with soluble cell lysates supplemented with 0.1% SDS, ADP-ribose and ADP-HPD; cells treated with 3-17 mM glucose for 1 or 7 hr; precipitates blotted for TNKS; only the target purified.

B1: PARsylated tankyrase (TNKS), endogenous in MIN6 cells (protein, UniProt Q6PFX9 1-1320)
chain: MAASRRSQHHHHHHQQQLQPAPGASAPPPPPPPPLSPGLAPGPTPASPTAGGLAPFASPRHGLALPEGDGSRDPPDRPRSPDPVDGAVCTVAAPAAVPAASAAVGVAPTPAGGGGGGGNNSASSASSPTSSSSSSPSSPGSSLAESPEAAGVGSTATLGAGAAGLGPGVPAVSGALRELLEACRNGDVSRVKRLVDAANVNAKDMAGRKSSPLHFAAGFGRKDVVEHLLQMGANVHARDDGGLIPLHNACSFGHAEVVSLLLCQGADPNARDNWNYTPLHEAAIKGKIDVCIVLLQHGADPNIRNTDGKSALDLADPSAKAVLTGEYKKDELLEAARSGNEEKLMALLTPLNVNCHASDGRKSTPLHLAAGYNRVRIVQLLLQHGADVHAKDKGGLVPLHNACSYGHYEVTELLLKHGACVNAMDLWQFTPLHEAASKNRVEVCSLLLSHGADPTLVNCHGKSAVDMAPTPELRERLTYEFKGHSLLQAAREADLAKVKKTLALEIINFKQPQSHETALHCAVASLHPKRKQVAELLLRKGANVNEKNKDFMTPLHVAAERAHNDVMEVLHKHGAKMNALDSLGQTALHRAALAGHLQTCRLLLSYGSDPSIISLQGFTAAQMGNEAVQQILSESTPMRTSDVDYRLLEASKAGDLETVKQLCSPQNVNCRDLEGRHSTPLHFAAGYNRVSVVEYLLHHGADVHAKDKGGLVPLHNACSYGHYEVAELLVRHGASVNVADLWKFTPLHEAAAKGKYEICKLLLKHGADPTKKNRDGNTPLDLVKEGDTDIQDLLRGDAALLDAAKKGCLARVQKLCTPENINCRDTQGRNSTPLHLAAGYNNLEVAEYLLEHGADVNAQDKGGLIPLHNAASYGHVDIAALLIKYNTCVNATDKWAFTPLHEAAQKGRTQLCALLLAHGADPTMKNQEGQTPLDLATADDIRALLIDAMPPEALPTCFKPQATVVSASLISPASTPSCLSAASSIDNLTGPLTDLAVGGASNAGDGAAGAERKEGEVAGLDMNISQFLKSLGLEHLRDIFETEQITLDVLADMGHEELKEIGINAYGHRHKLIKGVERLLGGQQGTNPYLTFHCVNQGTILLDLAPEDKEYQSVEEEMQSTIREHRDGGNAGGIFNRYNVIRIQKVVNKKLRERFCHRQKEVSEENHNHHNERMLFHGSPFINAIIHKGFDERHAYIGGMFGAGIYFAENSSKSNQYVYGIGGGTGCPTHKDRSCYICHRQMLFCRVTLGKSFLQFSTMKMAHAPPGHHSVIGRPSVNGLAYAEYVIYRGEQAYPEYLITYQIMKPEAPSQTATAAEQKT
modifications: poly-ADP-ribosylated (autoPARsylation), sites not stated
With B1, the binding entry was “binds”.
